Results: article doi:10.1101/2020.05.09.085852 (bioRxiv, 2020)
Results are given in words; binding and its absence hold for the method and conditions named. For part of these data: In cells and extracts the contact can be indirect. Some binding calls cover weakened binding; strength is not graded here. For part of these data: Sequences can lack the tags named with a protein.

Tests used:
[1] = biological target: T1, YukC (BACTH fusion) (B. subtilis 168) (UniProt P71070); assay: two-hybrid
T1 sequence: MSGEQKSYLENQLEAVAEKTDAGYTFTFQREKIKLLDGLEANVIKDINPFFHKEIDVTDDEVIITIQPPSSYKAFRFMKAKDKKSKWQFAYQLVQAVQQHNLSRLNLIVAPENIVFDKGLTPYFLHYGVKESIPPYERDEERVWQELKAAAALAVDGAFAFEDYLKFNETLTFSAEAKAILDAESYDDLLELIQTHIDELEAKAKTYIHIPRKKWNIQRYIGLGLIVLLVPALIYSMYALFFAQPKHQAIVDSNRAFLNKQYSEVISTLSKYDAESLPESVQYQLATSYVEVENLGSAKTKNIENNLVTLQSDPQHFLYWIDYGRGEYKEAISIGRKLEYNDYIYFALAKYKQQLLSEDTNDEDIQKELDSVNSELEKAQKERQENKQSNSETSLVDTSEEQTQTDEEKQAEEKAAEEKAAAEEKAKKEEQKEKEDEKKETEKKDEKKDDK

[2] = biological target: T2, YukE (BACTH fusion) (B. subtilis 168) (UniProt C0SP85); assay: two-hybrid
T2 sequence: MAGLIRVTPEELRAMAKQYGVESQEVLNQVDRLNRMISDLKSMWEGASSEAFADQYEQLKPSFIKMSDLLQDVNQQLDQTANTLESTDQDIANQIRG

[3] = biological target: YxiD N-terminal region (YxiDN), BACTH fusion (B. subtilis 168) (UniProt P42296); assay: two-hybrid
[4] = biological target: YueC (BACTH fusion) (B. subtilis 168) (UniProt O32100); assay: two-hybrid
[5] = biological target: T3, YueB (BACTH fusion) (B. subtilis 168) (UniProt O32101); assay: two-hybrid
T3 sequence: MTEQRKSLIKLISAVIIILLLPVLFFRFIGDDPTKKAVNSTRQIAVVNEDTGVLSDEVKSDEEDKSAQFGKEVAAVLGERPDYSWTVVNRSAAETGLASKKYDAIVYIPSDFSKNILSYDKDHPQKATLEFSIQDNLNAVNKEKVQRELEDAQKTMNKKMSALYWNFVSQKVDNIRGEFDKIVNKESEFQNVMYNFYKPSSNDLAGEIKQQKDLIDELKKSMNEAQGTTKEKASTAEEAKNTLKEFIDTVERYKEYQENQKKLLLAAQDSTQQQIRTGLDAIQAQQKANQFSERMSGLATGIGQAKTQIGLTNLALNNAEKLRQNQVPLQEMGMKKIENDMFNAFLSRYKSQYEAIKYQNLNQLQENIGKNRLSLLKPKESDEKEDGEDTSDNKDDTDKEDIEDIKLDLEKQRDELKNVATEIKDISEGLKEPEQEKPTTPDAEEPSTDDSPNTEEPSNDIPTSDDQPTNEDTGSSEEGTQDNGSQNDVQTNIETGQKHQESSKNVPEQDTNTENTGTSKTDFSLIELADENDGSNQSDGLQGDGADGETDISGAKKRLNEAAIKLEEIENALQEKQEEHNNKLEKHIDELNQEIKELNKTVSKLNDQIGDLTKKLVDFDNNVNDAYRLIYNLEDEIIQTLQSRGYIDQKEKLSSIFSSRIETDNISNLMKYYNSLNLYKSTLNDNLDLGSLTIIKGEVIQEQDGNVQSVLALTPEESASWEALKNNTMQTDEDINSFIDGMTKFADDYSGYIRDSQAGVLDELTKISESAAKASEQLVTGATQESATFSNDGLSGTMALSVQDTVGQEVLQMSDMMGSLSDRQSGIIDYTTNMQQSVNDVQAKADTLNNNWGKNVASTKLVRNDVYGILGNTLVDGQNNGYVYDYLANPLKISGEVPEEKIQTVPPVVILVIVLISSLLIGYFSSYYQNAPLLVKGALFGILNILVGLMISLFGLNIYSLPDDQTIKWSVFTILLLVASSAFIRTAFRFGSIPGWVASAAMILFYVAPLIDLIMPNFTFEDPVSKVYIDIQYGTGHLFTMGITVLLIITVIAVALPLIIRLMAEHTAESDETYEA

[6] = biological target: YukB (BACTH fusion) (B. subtilis 168) (UniProt C0SPA7); assay: two-hybrid
[7] = biological target: T4, YueB.strep (B. subtilis 168) (UniProt O32101); assay: pull-down
T4 sequence: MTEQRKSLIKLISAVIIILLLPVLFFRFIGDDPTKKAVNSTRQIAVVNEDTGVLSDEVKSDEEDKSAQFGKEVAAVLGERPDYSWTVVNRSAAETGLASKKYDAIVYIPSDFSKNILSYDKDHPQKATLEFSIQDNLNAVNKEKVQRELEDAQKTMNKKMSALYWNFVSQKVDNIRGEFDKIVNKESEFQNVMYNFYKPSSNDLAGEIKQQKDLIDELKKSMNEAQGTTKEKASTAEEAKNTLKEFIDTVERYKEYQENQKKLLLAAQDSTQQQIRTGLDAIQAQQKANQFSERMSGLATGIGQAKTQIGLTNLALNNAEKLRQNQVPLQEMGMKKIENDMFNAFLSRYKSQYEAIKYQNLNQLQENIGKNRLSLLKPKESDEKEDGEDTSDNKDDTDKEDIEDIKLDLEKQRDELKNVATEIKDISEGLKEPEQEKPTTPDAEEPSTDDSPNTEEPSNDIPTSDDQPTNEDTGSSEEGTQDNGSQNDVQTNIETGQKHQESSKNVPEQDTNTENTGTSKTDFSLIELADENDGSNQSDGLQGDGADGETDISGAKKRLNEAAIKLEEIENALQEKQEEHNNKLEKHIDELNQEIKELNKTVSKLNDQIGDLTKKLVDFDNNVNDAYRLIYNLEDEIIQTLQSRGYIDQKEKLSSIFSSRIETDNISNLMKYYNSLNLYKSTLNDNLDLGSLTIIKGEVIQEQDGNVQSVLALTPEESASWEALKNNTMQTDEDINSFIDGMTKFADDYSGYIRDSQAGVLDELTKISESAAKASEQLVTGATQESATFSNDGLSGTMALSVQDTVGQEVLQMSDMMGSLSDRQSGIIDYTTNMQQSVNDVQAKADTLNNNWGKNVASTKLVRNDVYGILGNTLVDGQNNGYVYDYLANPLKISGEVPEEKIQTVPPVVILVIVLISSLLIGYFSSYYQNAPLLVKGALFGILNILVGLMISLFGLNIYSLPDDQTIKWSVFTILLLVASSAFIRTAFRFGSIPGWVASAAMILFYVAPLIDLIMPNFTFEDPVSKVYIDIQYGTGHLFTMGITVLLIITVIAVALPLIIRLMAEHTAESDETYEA

[8] = biological target: T5, YukC.strep (B. subtilis 168) (UniProt P71070); assay: pull-down
T5 sequence: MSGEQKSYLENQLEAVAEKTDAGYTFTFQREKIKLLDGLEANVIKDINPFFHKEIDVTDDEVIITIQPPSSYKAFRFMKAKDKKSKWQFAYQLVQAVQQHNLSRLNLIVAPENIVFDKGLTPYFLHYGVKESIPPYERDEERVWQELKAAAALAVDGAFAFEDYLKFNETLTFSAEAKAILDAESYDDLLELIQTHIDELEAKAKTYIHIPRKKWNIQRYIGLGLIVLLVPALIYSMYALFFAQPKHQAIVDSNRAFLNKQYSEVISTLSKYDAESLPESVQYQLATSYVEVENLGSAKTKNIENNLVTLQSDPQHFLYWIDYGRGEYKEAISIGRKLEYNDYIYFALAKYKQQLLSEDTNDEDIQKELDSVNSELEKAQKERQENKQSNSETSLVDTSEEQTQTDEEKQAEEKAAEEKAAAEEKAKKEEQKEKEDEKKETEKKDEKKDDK

[9] = biological target: T6, YukCΔ217.strep (pseudokinase domain) (B. subtilis 168) (UniProt P71070); assay: pull-down
T6 sequence: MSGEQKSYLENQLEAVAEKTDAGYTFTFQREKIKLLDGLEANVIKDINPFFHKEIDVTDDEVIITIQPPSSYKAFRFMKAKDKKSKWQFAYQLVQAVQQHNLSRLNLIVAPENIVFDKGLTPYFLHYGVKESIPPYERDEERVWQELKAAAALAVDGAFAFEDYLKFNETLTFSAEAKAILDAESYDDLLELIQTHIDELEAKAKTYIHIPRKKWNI

## YukB N-terminal region (residues 1-256), BACTH fusion (from UniProt C0SPA7 1-256) (domain or fragment)
[1]
  binding: binds

## YxiD N-terminal region (YxiDN), BACTH fusion (from UniProt P42296 1-97) (domain or fragment)
[1]
  binding: binds
[2]
  binding: binds
[3]
  binding: binds

## YueC (BACTH fusion) (from UniProt O32100 1-151)
[1]
  binding: binds
[4]
  binding: no binding

## YukB (BACTH fusion) (from UniProt C0SPA7 1-1495)
[1]
  binding: binds
[5]
  binding: binds
[6]
  binding: binds

B1: YukC (BACTH fusion) (protein, UniProt P71070 1-451)
chain: MSGEQKSYLENQLEAVAEKTDAGYTFTFQREKIKLLDGLEANVIKDINPFFHKEIDVTDDEVIITIQPPSSYKAFRFMKAKDKKSKWQFAYQLVQAVQQHNLSRLNLIVAPENIVFDKGLTPYFLHYGVKESIPPYERDEERVWQELKAAAALAVDGAFAFEDYLKFNETLTFSAEAKAILDAESYDDLLELIQTHIDELEAKAKTYIHIPRKKWNIQRYIGLGLIVLLVPALIYSMYALFFAQPKHQAIVDSNRAFLNKQYSEVISTLSKYDAESLPESVQYQLATSYVEVENLGSAKTKNIENNLVTLQSDPQHFLYWIDYGRGEYKEAISIGRKLEYNDYIYFALAKYKQQLLSEDTNDEDIQKELDSVNSELEKAQKERQENKQSNSETSLVDTSEEQTQTDEEKQAEEKAAEEKAAAEEKAKKEEQKEKEDEKKETEKKDEKKDDK
[1]
  binding: binds

B2: YukC.his (protein, UniProt P71070 1-451)
chain: MSGEQKSYLENQLEAVAEKTDAGYTFTFQREKIKLLDGLEANVIKDINPFFHKEIDVTDDEVIITIQPPSSYKAFRFMKAKDKKSKWQFAYQLVQAVQQHNLSRLNLIVAPENIVFDKGLTPYFLHYGVKESIPPYERDEERVWQELKAAAALAVDGAFAFEDYLKFNETLTFSAEAKAILDAESYDDLLELIQTHIDELEAKAKTYIHIPRKKWNIQRYIGLGLIVLLVPALIYSMYALFFAQPKHQAIVDSNRAFLNKQYSEVISTLSKYDAESLPESVQYQLATSYVEVENLGSAKTKNIENNLVTLQSDPQHFLYWIDYGRGEYKEAISIGRKLEYNDYIYFALAKYKQQLLSEDTNDEDIQKELDSVNSELEKAQKERQENKQSNSETSLVDTSEEQTQTDEEKQAEEKAAEEKAAAEEKAKKEEQKEKEDEKKETEKKDEKKDDK
[7]
  binding: binds

B3: YukBΔ256.his (FHA domains) (domain or fragment, UniProt C0SPA7 1-256)
chain: MSLLWVFYQNNVQKLNLSNLPSSHPVTIGPDVKDSVTISTIPFNSGVISLKRKESGGQYEVFLGNDCLGTIETDISFTLQTDQQDIRLILTGSEPEKSVYFTGNRDEIVCSSEKTNADIYLNPQDFAFAEQSTFSLLRAGGSWSVRPESGTIFLNGEKINANTPLKPGDEIFWNFTQMRVTEQDLLEIVHYAQFETALTETVKPSTEMQKKYPQYRRTPRMVYDLPDDRVSFSFPSQESDQTNRGLWLVILPPLVM
[8]
  binding: binds
[9]
  binding: binds

B4: YukE.his (protein, UniProt C0SP85 1-97)
chain: MAGLIRVTPEELRAMAKQYGVESQEVLNQVDRLNRMISDLKSMWEGASSEAFADQYEQLKPSFIKMSDLLQDVNQQLDQTANTLESTDQDIANQIRG
[8]
  binding: binds

B5: YueB (BACTH fusion) (protein, UniProt O32101 1-1076)
chain: MTEQRKSLIKLISAVIIILLLPVLFFRFIGDDPTKKAVNSTRQIAVVNEDTGVLSDEVKSDEEDKSAQFGKEVAAVLGERPDYSWTVVNRSAAETGLASKKYDAIVYIPSDFSKNILSYDKDHPQKATLEFSIQDNLNAVNKEKVQRELEDAQKTMNKKMSALYWNFVSQKVDNIRGEFDKIVNKESEFQNVMYNFYKPSSNDLAGEIKQQKDLIDELKKSMNEAQGTTKEKASTAEEAKNTLKEFIDTVERYKEYQENQKKLLLAAQDSTQQQIRTGLDAIQAQQKANQFSERMSGLATGIGQAKTQIGLTNLALNNAEKLRQNQVPLQEMGMKKIENDMFNAFLSRYKSQYEAIKYQNLNQLQENIGKNRLSLLKPKESDEKEDGEDTSDNKDDTDKEDIEDIKLDLEKQRDELKNVATEIKDISEGLKEPEQEKPTTPDAEEPSTDDSPNTEEPSNDIPTSDDQPTNEDTGSSEEGTQDNGSQNDVQTNIETGQKHQESSKNVPEQDTNTENTGTSKTDFSLIELADENDGSNQSDGLQGDGADGETDISGAKKRLNEAAIKLEEIENALQEKQEEHNNKLEKHIDELNQEIKELNKTVSKLNDQIGDLTKKLVDFDNNVNDAYRLIYNLEDEIIQTLQSRGYIDQKEKLSSIFSSRIETDNISNLMKYYNSLNLYKSTLNDNLDLGSLTIIKGEVIQEQDGNVQSVLALTPEESASWEALKNNTMQTDEDINSFIDGMTKFADDYSGYIRDSQAGVLDELTKISESAAKASEQLVTGATQESATFSNDGLSGTMALSVQDTVGQEVLQMSDMMGSLSDRQSGIIDYTTNMQQSVNDVQAKADTLNNNWGKNVASTKLVRNDVYGILGNTLVDGQNNGYVYDYLANPLKISGEVPEEKIQTVPPVVILVIVLISSLLIGYFSSYYQNAPLLVKGALFGILNILVGLMISLFGLNIYSLPDDQTIKWSVFTILLLVASSAFIRTAFRFGSIPGWVASAAMILFYVAPLIDLIMPNFTFEDPVSKVYIDIQYGTGHLFTMGITVLLIITVIAVALPLIIRLMAEHTAESDETYEA
[1]
  binding: binds
[5]
  binding: binds

B6: YukE (BACTH fusion) (protein, UniProt C0SP85 1-97)
chain: MAGLIRVTPEELRAMAKQYGVESQEVLNQVDRLNRMISDLKSMWEGASSEAFADQYEQLKPSFIKMSDLLQDVNQQLDQTANTLESTDQDIANQIRG
[1]
  binding: binds
[2]
  binding: binds
